Laboratory results published in article PMC5688218.
These are yes or no findings as the source states them, for the method shown. Binding calls can cover weak binding; strength is not graded here.

Chains of the proteins cited; added tags and fusions are not shown. Lines headed by an entry give the natural chain unless they say otherwise; changes in a name come on top. Residues count along the entry.
UniProt Q96EQ9: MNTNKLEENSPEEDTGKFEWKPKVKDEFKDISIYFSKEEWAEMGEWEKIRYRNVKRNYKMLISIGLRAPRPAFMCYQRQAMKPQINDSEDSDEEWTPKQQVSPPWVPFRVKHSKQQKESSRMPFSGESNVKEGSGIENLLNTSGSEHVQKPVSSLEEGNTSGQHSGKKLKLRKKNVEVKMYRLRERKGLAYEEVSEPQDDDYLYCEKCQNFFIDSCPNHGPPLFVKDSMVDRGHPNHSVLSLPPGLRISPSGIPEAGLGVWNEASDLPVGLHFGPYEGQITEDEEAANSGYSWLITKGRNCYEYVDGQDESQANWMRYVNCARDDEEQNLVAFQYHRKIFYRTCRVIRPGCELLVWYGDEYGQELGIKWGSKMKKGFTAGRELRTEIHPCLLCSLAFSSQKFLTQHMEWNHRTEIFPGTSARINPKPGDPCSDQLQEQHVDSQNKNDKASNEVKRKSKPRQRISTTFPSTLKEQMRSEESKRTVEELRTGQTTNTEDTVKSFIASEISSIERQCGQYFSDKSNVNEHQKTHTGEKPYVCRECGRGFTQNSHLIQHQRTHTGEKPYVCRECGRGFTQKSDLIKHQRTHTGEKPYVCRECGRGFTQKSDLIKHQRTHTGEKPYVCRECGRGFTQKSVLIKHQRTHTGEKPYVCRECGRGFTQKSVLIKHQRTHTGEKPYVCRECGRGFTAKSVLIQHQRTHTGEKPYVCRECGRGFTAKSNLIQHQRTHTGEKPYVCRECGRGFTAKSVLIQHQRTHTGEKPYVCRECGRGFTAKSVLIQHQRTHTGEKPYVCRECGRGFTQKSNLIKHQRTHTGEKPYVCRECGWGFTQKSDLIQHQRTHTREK
UniProt Q9QWF0, residues 397-911: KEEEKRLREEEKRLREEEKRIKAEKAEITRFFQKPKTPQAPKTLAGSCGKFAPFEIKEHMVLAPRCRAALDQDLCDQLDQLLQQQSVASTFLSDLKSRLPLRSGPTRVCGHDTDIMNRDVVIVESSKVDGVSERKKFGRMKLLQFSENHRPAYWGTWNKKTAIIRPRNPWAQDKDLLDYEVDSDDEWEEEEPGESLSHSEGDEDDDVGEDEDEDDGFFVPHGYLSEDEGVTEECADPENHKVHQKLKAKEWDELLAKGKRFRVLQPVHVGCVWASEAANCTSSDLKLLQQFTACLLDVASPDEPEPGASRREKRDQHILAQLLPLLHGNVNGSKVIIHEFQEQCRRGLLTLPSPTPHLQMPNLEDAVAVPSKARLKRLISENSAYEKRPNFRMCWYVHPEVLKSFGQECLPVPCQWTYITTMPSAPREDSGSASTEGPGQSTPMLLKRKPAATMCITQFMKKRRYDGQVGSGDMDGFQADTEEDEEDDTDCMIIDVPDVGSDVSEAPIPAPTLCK
UniProt Q99L90: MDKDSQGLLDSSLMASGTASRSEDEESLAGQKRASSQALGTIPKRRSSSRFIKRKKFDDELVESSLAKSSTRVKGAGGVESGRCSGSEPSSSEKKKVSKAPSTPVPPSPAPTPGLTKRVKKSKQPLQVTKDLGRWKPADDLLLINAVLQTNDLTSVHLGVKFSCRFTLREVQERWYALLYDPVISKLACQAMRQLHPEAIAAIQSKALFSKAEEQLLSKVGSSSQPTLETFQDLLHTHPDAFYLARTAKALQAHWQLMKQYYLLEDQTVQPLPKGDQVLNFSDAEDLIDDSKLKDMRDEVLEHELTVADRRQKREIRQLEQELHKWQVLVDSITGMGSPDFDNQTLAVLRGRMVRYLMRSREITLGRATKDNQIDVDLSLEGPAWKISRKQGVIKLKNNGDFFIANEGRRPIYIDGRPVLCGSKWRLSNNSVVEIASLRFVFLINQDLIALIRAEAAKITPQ
UniProt Q9CQJ2, residues 42-290: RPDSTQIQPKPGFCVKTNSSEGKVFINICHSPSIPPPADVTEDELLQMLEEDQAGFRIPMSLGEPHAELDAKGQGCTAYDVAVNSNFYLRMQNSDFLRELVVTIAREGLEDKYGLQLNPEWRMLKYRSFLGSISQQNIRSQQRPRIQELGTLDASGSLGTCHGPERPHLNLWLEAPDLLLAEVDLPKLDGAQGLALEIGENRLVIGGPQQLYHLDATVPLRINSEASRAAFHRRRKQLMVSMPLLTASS

Target: KRAB domain of mouse PRDM9 (Gal4 BD-PRDM9 KRAB) (mouse) (UniProt Q96EQ9)
Assay: two-hybrid; Gal4 AD fusions (Y187) mated with Gal4 BD fusions (AH109); growth of diploids on −LWH and −LWHAd after 3 days at 30 °C, by streaking or spotting; 5 mM 3-AT added to −LWH for self-activating constructs

Substance	binding
mouse CHAF1A 397–911 (Gal4 AD fusion) (from UniProt Q9QWF0 397-911) (domain or fragment)	binds
mouse MCRS1, full length (Gal4 AD fusion) (from UniProt Q99L90 1-462)	binds
mouse PIH1D1 42–290 (Gal4 AD fusion) (from UniProt Q9CQJ2 42-290) (domain or fragment)	binds
